Test results from paper PMC6814582.
No constants are given. Whether binding was seen depends on the method and setting. Binding seen in cells or lysates may run through a third protein. Some binding calls cover weakened binding; strength is not graded here. Each block holds one substance with its values, some of them ahead of it.

Protein sequences, listed by entry. Tags and fused reporters are not part of them. Residues count along the entry.
UniProt P04756, residues 21-457: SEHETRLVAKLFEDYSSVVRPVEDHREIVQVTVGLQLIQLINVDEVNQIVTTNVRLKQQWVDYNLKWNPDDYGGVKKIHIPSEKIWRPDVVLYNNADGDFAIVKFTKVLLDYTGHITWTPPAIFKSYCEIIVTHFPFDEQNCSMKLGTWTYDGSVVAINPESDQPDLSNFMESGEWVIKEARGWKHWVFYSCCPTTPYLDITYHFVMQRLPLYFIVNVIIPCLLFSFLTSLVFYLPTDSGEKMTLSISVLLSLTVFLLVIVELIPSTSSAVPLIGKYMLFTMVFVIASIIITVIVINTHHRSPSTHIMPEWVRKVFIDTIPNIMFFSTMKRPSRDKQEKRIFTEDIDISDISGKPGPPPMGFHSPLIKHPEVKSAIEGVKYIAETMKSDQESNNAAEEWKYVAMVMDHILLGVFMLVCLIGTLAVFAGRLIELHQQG
UniProt P42227: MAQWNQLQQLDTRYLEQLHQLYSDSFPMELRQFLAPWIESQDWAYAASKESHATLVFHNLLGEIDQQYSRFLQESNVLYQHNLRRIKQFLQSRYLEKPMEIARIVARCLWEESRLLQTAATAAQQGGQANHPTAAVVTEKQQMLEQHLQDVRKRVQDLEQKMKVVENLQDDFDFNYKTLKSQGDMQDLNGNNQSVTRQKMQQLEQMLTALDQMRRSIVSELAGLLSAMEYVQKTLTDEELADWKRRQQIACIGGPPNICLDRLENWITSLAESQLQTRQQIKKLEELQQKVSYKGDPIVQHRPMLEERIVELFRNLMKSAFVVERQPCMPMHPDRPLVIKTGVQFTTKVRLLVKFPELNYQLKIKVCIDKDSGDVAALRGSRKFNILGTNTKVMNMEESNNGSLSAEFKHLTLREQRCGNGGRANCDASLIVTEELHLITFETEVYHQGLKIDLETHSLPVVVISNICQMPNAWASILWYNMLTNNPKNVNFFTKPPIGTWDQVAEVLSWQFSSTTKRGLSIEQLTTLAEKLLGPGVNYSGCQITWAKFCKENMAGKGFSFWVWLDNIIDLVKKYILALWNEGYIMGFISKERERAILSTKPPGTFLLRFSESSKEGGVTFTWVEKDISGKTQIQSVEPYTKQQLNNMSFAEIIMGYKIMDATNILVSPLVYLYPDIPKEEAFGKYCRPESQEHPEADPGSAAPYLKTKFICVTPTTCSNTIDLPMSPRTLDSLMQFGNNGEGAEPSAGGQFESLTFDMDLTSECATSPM
UniProt P40763: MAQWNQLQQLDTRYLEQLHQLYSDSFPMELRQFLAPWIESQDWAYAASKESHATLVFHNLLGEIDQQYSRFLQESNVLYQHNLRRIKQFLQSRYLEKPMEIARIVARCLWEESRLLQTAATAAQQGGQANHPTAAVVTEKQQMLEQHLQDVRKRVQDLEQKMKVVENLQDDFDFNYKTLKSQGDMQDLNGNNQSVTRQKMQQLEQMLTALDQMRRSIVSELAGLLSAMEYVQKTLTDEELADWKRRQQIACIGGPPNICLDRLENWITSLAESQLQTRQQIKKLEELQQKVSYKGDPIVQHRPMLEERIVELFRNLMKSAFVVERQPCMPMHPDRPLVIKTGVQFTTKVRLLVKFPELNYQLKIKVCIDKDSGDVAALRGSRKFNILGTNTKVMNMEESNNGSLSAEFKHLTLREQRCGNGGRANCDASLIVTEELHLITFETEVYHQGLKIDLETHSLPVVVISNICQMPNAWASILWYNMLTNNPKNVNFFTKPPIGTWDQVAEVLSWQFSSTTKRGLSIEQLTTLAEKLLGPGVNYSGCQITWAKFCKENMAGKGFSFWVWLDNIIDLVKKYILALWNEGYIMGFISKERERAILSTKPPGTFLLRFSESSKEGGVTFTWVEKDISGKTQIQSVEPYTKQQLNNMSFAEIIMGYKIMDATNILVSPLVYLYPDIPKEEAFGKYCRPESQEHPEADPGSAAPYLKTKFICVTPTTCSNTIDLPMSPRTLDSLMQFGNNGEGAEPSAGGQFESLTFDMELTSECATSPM
UniProt P02708, residues 21-457: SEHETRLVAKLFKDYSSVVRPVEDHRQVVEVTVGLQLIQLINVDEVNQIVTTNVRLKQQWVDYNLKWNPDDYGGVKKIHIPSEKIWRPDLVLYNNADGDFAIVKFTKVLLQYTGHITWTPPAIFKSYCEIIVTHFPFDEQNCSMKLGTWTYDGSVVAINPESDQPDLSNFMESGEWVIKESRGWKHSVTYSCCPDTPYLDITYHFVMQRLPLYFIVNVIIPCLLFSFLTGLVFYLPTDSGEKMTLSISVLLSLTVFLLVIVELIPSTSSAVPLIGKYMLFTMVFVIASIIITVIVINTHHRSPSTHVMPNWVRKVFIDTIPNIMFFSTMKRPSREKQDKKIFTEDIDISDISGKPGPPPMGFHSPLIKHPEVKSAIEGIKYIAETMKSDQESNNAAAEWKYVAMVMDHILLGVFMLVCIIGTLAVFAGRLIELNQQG

Legend:
[1] = target: α1 nicotinic acetylcholine receptor (nAChRα1), endogenous in mouse cell lines (mouse (endogenous in MOVAS and RAW264.7)) (UniProt P04756); experiment: co-IP; RAW264.7 whole cell lysate (0.5% Triton X-100 in PBS, protease and phosphatase inhibitors); IP with anti-STAT3 or anti-nAChRα1 antibody, normal mouse IgG as control, 2 h at room temperature; protein A/G magnetic beads; western blot
[2] = target: α1 nicotinic acetylcholine receptor (nAChRα1), endogenous in mouse cell lines (mouse (endogenous in MOVAS and RAW264.7)) (UniProt P04756); experiment: co-IP; MOVAS whole cell lysate (0.5% Triton X-100 in PBS, protease and phosphatase inhibitors); IP with anti-STAT3 or anti-nAChRα1 antibody, normal mouse IgG as control, 2 h at room temperature; protein A/G magnetic beads; western blot
[3] = target: nAChRα1-GFP (from α1-GFP-plasmid) (UniProt P04756); experiment: co-IP; 293T cells transfected with α1-GFP-plasmids or STAT3-GFP-plasmids; IP with anti-GFP-tag antibody, other steps as for MOVAS and RAW264.7; western blot
[4] = target: signal transducer and activator of transcription 3 (STAT3), endogenous in mouse cell lines (mouse (endogenous in MOVAS and RAW264.7)) (UniProt P42227); experiment: co-IP; RAW264.7 whole cell lysate (0.5% Triton X-100 in PBS, protease and phosphatase inhibitors); IP with anti-STAT3 or anti-nAChRα1 antibody, normal mouse IgG as control, 2 h at room temperature; protein A/G magnetic beads; western blot
[5] = target: signal transducer and activator of transcription 3 (STAT3), endogenous in mouse cell lines (mouse (endogenous in MOVAS and RAW264.7)) (UniProt P42227); experiment: co-IP; MOVAS whole cell lysate (0.5% Triton X-100 in PBS, protease and phosphatase inhibitors); IP with anti-STAT3 or anti-nAChRα1 antibody, normal mouse IgG as control, 2 h at room temperature; protein A/G magnetic beads; western blot
[6] = target: STAT3-GFP (from STAT3-GFP-plasmid) (UniProt P42227); experiment: co-IP; 293T cells transfected with α1-GFP-plasmids or STAT3-GFP-plasmids; IP with anti-GFP-tag antibody, other steps as for MOVAS and RAW264.7; western blot

binding [1]: binds | binding [2]: binds
Substance: signal transducer and activator of transcription 3 (STAT3), endogenous in mouse cell lines (from UniProt P42227 1-770)

binding [3]: binds
Substance: STAT3 in 293T cells (partner of α1-GFP) (from UniProt P40763 1-770)

binding [4]: binds | binding [5]: binds
Substance: α1 nicotinic acetylcholine receptor (nAChRα1), endogenous in mouse cell lines (from UniProt P04756 21-457)

binding [6]: binds
Substance: nAChRα1 in 293T cells (partner of STAT3-GFP) (from UniProt P02708 21-457) (receptor)
